{"sequences": {"note": "Amino acid sequences for entries named in this document (tags omitted).", "UniProt P07737": "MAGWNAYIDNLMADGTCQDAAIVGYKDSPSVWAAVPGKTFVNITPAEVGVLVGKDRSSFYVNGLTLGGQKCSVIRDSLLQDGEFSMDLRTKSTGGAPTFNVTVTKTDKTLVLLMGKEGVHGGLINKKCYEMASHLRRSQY"}, "source": "paper PMC9166367", "target": "Recombinant Human Profilin 1 (human) (UniProt P07737)", "assay": "intrinsic tryptophan fluorescence (emission spectra with and without the peptide); 10 uM human Profilin 1 in the absence and presence of 4.5 mM peptide, 20 °C, excitation 295 nm, emission 300-400 nm; blue shift and enhanced emission of Trp3 and Trp31 of Profilin 1 on ligand binding; both purified", "note": "Results are given in words; binding and its absence hold for the method and conditions named. Some binding calls cover weakened binding; strength is not graded here."}
{"binder": "GPPPPAPAPQP (N-terminal acetyl; C-terminal amide)", "note": "[proline-rich peptide ac…am, covering residues 166-175 of hCPEB3]", "values": [{"measurement": "binding", "result": "binds weakly"}]}
